Reference: patent US8268827B2, “Pyridazinone derivatives as PARP inhibitors” (Istituto di Ricerche di Biologia Molecolare P. Angeletti …, priority 2007, dated 2012)
Some results were stated once for a whole list of compounds, not compound by compound.

Protein sequences, listed by entry. Tags and fused reporters are not part of them.
UniProt P09874, whole entry: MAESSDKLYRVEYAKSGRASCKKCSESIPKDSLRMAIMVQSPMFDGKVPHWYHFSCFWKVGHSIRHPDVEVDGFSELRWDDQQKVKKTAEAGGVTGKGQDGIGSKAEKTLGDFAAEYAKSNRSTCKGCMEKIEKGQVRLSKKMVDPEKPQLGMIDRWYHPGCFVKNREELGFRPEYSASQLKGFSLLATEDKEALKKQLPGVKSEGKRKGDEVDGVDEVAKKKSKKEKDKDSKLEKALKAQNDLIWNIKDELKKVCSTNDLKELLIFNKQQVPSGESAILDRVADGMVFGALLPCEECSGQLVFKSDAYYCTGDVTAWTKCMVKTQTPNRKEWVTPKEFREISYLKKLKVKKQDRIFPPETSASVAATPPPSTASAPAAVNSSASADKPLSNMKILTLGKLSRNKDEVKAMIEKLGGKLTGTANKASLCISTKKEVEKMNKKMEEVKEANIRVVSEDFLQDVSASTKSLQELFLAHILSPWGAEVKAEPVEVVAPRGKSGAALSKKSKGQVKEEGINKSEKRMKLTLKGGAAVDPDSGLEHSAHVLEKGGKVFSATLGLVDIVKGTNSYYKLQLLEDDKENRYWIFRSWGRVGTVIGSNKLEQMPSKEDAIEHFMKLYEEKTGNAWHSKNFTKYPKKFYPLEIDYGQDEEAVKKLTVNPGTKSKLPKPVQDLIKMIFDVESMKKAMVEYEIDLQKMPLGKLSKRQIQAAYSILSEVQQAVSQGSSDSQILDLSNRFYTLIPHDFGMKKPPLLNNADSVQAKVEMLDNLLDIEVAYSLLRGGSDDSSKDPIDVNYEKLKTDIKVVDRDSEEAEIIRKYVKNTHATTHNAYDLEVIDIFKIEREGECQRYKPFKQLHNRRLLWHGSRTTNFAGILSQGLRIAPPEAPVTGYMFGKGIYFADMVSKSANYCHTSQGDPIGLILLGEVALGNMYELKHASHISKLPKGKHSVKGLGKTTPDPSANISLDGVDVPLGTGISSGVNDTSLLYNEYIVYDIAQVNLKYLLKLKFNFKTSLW

The compounds below were run against T1, PARP-1 (Homo sapiens, UniProt P09874) (assay: PARP-1 SPA assay).
T1 construct: purchased Trevigen 4668-500-01
Type: biochemical
Procedure, shortened: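 PARP-1 reaction in Tris pH 8 buffer with MgCl2, spermine, KCl, activated calf thymus DNA and a mix of [3H]-NAD, NAD and biotinylated NAD, 2 h at RT. Stopped with EDTA/streptavidin SPA beads and poly(ADP-ribose) incorporation counted by scintillation.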
For `COC[C@H](C)N1CCN(C(=O)c2cc(Cc3n[nH]c(=O)c(C)c3C)ccc2F)CC1=O` [Example 169, 6-[4-Fluoro-3-({4-[(1S)-2-methoxy-1-methylethyl]-3-oxopiperazin-1-yl}carbonyl)benzyl]-4,5-dimethylpyridazin-3(2H)-one], the IC50 was under 5 nM.
In the case of `Cc1c(Cc2ccc(F)c(C(=O)N3CCN(CC(C)(C)O)C(=O)C3)c2)n[nH]c(=O)c1C` [Example 173, 6-(4-Fluoro-3-{[4-(2-hydroxy-2-methylpropyl)-3-oxopiperazin-1-yl]carbonyl}benzyl)-4,5-dimethylpyridazin-3(2H)-one], the IC50 is reported as under 5 nM.
Compound `Cc1c(Cc2ccc(F)c(C(=O)N3CC(=O)N(c4ccc(C#N)c(F)c4)[C@@H](C)C3)c2)n[nH]c(=O)c1C` [Example 174, 4-((2S)-4-{5-[(4,5-Dimethyl-6-oxo-1,6-dihydropyridazin-3-yl)methyl]-2-fluorobenzoyl}-2-methyl-6-oxopiperazin-1-yl)-2-fluorobenzonitrile] has an IC50 of under 5 nM.
In the case of `Cc1c(Cc2ccc(F)c(C(=O)N3CC(=O)N(C4CCC4)[C@H](C)C3)c2)n[nH]c(=O)c1C` [Example 175, 6-(3-{[(3R)-4-Cyclobutyl-3-methyl-5-oxopiperazin-1-yl]carbonyl}-4-fluorobenzyl)-4,5-dimethylpyridazin-3(2H)-one], the IC50 is reported as under 5 nM.
With `Cc1c(Cc2ccc(F)c(C(=O)N3CC(=O)N(c4cccc(Cl)c4)[C@@H](C)C3)c2)n[nH]c(=O)c1C` [Example 177, 6-(3-{[(3S)-4-(3-Chlorophenyl)-3-methyl-5-oxopiperazin-1-yl]carbonyl}-4-fluorobenzyl)-4,5-dimethylpyridazin-3(2H)-one] the IC50 was under 5 nM.
`Cc1c(Cc2ccc(F)c(C(=O)N3CC(=O)N(c4cccc(Cl)c4)[C@H](C)C3)c2)n[nH]c(=O)c1C` [Example 178, 6-(3-{[(3R)-4-(3-Chlorophenyl)-3-methyl-5-oxopiperazin-1-yl]carbonyl}-4-fluorobenzyl)-4,5-dimethylpyridazin-3(2H)-one] was tested, and the IC50 was under 5 nM.
With `COC[C@@H](C)N1CCN(C(=O)c2cc(Cc3n[nH]c(=O)c(C)c3C)ccc2F)CC1=O` [Example 179, 6-[4-Fluoro-3-({4-[(1R)-2-methoxy-1-methylethyl]-3-oxopiperazin-1-yl}carbonyl)benzyl]-4,5-dimethylpyridazin-3(2H)-one] the IC50 was under 5 nM.
For `CC[C@@H]1CN(C(=O)c2cc(Cc3n[nH]c(=O)c(C)c3C)ccc2F)CC(=O)N1C1CCC1` [Example 180, 6-(3-{[(3R)-4-Cyclobutyl-3-ethyl-5-oxopiperazin-1-yl]carbonyl}-4-fluorobenzyl)-4,5-dimethylpyridazin-3(2H)-one], the IC50 was under 5 nM.
`Cc1c(Cc2ccc(F)c(C(=O)N3CCN([C@H](C)C(C)C)C(=O)C3)c2)n[nH]c(=O)c1C` [Example 182, 6-[3-({4-[(1R)-1,2-Dimethylpropyl]-3-oxopiperazin-1-yl}carbonyl)-4-fluorobenzyl]-4,5-dimethylpyridazin-3(2H)-one] gave an IC50 of under 5 nM.
Compound `Cc1c(Cc2ccc(F)c(C(=O)N3CCN([C@@H](C)C(C)C)C(=O)C3)c2)n[nH]c(=O)c1C` [Example 183, 6-[3-({4-[(1S)-1,2-Dimethylpropyl]-3-oxopiperazin-1-yl}carbonyl)-4-fluorobenzyl]-4,5-dimethylpyridazin-3(2H)-one] has an IC50 of under 5 nM.
`CCC1CN(C(=O)c2cc(Cc3n[nH]c(=O)c(C)c3C)ccc2F)CC(=O)N1C1CCCCC1` (stereo not drawn) [Example 184, 6-{3-[(4-Cyclohexyl-3-ethyl-5-oxopiperazin-1-yl)carbonyl]-4-fluorobenzyl}-4,5-dimethylpyridazin-3(2H)-one] was tested, and the IC50 was under 5 nM.
In the case of `CCC1CN(C(=O)c2cc(Cc3n[nH]c(=O)c(C)c3C)ccc2F)CC(=O)N1C1CCCC1` (stereo not drawn) [Example 186, 6-{3-[(4-Cyclopentyl-3-ethyl-5-oxopiperazin-1-yl)carbonyl]-4-fluorobenzyl}-4,5-dimethylpyridazin-3(2H)-one], the IC50 is reported as under 5 nM.
`Cc1c(Cc2ccc(F)c(C(=O)N3CC(=O)N(c4ccc(Cl)c(F)c4)[C@H](C)C3)c2)n[nH]c(=O)c1C` [Example 187, 6-(3-{[(3R)-4-(4-Chloro-3-fluorophenyl)-3-methyl-5-oxopiperazin-1-yl]carbonyl}-4-fluorobenzyl)-4,5-dimethylpyridazin-3(2H)-one] was tested, and the IC50 was under 5 nM.
For `Cc1c(Cc2ccc(F)c(C(=O)N3CC(=O)N(C4CC(F)(F)C4)C(C)C3)c2)n[nH]c(=O)c1C` (stereo not drawn) [Example 188, 6-(3-{[4-(3,3-Difluorocyclobutyl)-3-methyl-5-oxopiperazin-1-yl]carbonyl}-4-fluorobenzyl)-4,5-dimethylpyridazin-3(2H)-one], the IC50 was under 5 nM.
In the case of `Cc1c(Cc2ccc(F)c(C(=O)N3CC(=O)N(c4ccc(C#N)cc4)[C@H](C)C3)c2)n[nH]c(=O)c1C` [Example 189, 4-((2R)-4-{5-[(4,5-Dimethyl-6-oxo-1,6-dihydropyridazin-3-yl)methyl]-2-fluorobenzoyl}-2-methyl-6-oxopiperazin-1-yl)benzonitrile], the IC50 is reported as under 5 nM.
`Cc1c(Cc2ccc(F)c(C(=O)N3CC(=O)N(c4ccc(C#N)c(F)c4)[C@H](C)C3)c2)n[nH]c(=O)c1C` [Example 191, 4-((2R)-4-{5-[(4,5-Dimethyl-6-oxo-1,6-dihydropyridazin-3-yl)methyl]-2-fluorobenzoyl}-2-methyl-6-oxopiperazin-1-yl)-2-fluorobenzonitrile] showed an IC50 of under 5 nM.
In the case of `Cc1c(Cc2ccc(F)c(C(=O)N3CCN([C@@H](C)C(F)(F)F)C(=O)C3)c2)n[nH]c(=O)c1C` [Example 192, 6-[4-Fluoro-3-({3-oxo-4-[(1S)-2,2,2-trifluoro-1-methylethyl]piperazin-1-yl}carbonyl)benzyl]-4,5-dimethylpyridazin-3(2H)-one], the IC50 is reported as under 5 nM.
`Cc1c(Cc2ccc(F)c(C(=O)N3CC(=O)N(c4cc(F)cc(F)c4)[C@H](C)C3)c2)n[nH]c(=O)c1C` [Example 193, 6-(3-{[(3R)-4-(3,5-Difluorophenyl)-3-methyl-5-oxopiperazin-1-yl]carbonyl}-4-fluorobenzyl)-4,5-dimethylpyridazin-3(2H)-one] was tested, and the IC50 was under 5 nM.
With `Cc1c(Cc2ccc(F)c(C(=O)N3CC(=O)N(c4ccc(Cl)cc4)[C@H](C)C3)c2)n[nH]c(=O)c1C` [Example 194, 6-(3-{[(3R)-4-(4-Chlorophenyl)-3-methyl-5-oxopiperazin-1-yl]carbonyl}-4-fluorobenzyl)-4,5-dimethylpyridazin-3(2H)-one] the IC50 was under 5 nM.
With `Cc1c(Cc2ccc(F)c(C(=O)N3CC(=O)N(c4cccs4)[C@H](C)C3)c2)n[nH]c(=O)c1C` [Example 195, 6-(4-Fluoro-3-{[(3R)-3-methyl-5-oxo-4-(2-thienyl)piperazin-1-yl]carbonyl}benzyl)-4,5-dimethylpyridazin-3(2H)-one] the IC50 was under 5 nM.
In the case of `Cc1c(Cc2ccc(F)c(C(=O)N3CC(=O)N(c4ccc(Cl)cc4F)[C@H](C)C3)c2)n[nH]c(=O)c1C` [Example 196, 6-(3-{[(3R)-4-(4-Chloro-2-fluorophenyl)-3-methyl-5-oxopiperazin-1-yl]carbonyl}-4-fluorobenzyl)-4,5-dimethylpyridazin-3(2H)-one], the IC50 is reported as under 5 nM.
Work on `Cc1c(Cc2ccc(F)c(C(=O)N3CC(=O)N(c4ccc(F)c(C#N)c4)[C@H](C)C3)c2)n[nH]c(=O)c1C` [Example 197, 5-((2R)-4-{5-[(4,5-Dimethyl-6-oxo-1,6-dihydropyridazin-3-yl)methyl]-2-fluorobenzoyl}-2-methyl-6-oxopiperazin-1-yl)-2-fluorobenzonitrile] yielded an IC50 of under 5 nM.
In the case of `Cc1c(Cc2ccc(F)c(C(=O)N3CC(=O)N(c4cc(F)cc(Cl)c4)[C@H](C)C3)c2)n[nH]c(=O)c1C` [Example 198, 6-(3-{[(3R)-4-(3-Chloro-5-fluorophenyl)-3-methyl-5-oxopiperazin-1-yl]carbonyl}-4-fluorobenzyl)-4,5-dimethylpyridazin-3(2H)-one], the IC50 is reported as under 5 nM.
For `Cc1c(Cc2ccc(F)c(C(=O)N3CC(=O)N(c4ccc(F)c(Cl)c4)[C@H](C)C3)c2)n[nH]c(=O)c1C` [Example 199, 6-(3-{[(3R)-4-(3-Chloro-4-fluorophenyl)-3-methyl-5-oxopiperazin-1-yl]carbonyl}-4-fluorobenzyl)-4,5-dimethylpyridazin-3(2H)-one], the IC50 was under 5 nM.
Compound `Cc1c(Cc2ccc(F)c(C(=O)N3CCN([C@H](C)C(F)(F)F)C(=O)C3)c2)n[nH]c(=O)c1C` [Example 200, 6-[4-Fluoro-3-({3-oxo-4-[(1R)-2,2,2-trifluoro-1-methylethyl]piperazin-1-yl}carbonyl)benzyl]-4,5-dimethylpyridazin-3(2H)-one] has an IC50 of under 5 nM.
Compound `Cc1c(Cc2ccc(F)c(C(=O)N3CC(=O)N(c4ccc(C#N)cc4F)[C@H](C)C3)c2)n[nH]c(=O)c1C` [Example 201, 4-((2R)-4-{5-[(4,5-Dimethyl-6-oxo-1,6-dihydropyridazin-3-yl)methyl]-2-fluorobenzoyl}-2-methyl-6-oxopiperazin-1-yl)-3-fluorobenzonitrile] has an IC50 of under 5 nM.
Compound `Cc1c(Cc2ccc(F)c(C(=O)N3CC(=O)N(c4cc(F)cc(C#N)c4)[C@H](C)C3)c2)n[nH]c(=O)c1C` [Example 202, 3-((2R)-4-{5-[(4,5-Dimethyl-6-oxo-1,6-dihydropyridazin-3-yl)methyl]-2-fluorobenzoyl}-2-methyl-6-oxopiperazin-1-yl)-5-fluorobenzonitrile] has an IC50 of under 5 nM.
Compound `Cc1c(Cc2ccc(F)c(C(=O)N3CC(=O)N(c4ccc(F)c(F)c4)[C@H](C)C3)c2)n[nH]c(=O)c1C` [Example 203, 6-(3-{[(3R)-4-(3,4-Difluorophenyl)-3-methyl-5-oxopiperazin-1-yl]carbonyl}-4-fluorobenzyl)-4,5-dimethylpyridazin-3(2H)-one] has an IC50 of under 5 nM.
Compound `Cc1c(Cc2ccc(F)c(C(=O)N3CCN(C(C)C4CC4)C(=O)C3)c2)n[nH]c(=O)c1C` (stereo not drawn) [Example 204, 6-(3-{[4-(1-Cyclopropylethyl)-3-oxopiperazin-1-yl]carbonyl}-4-fluorobenzyl)-4,5-dimethylpyridazin-3(2H)-one] has an IC50 of under 5 nM.
In the case of `Cc1c(Cc2ccc(F)c(C(=O)N3CC(=O)N(c4cc(Cl)ccc4F)[C@H](C)C3)c2)n[nH]c(=O)c1C` [Example 205, 6-(3-{[(3R)-4-(5-Chloro-2-fluorophenyl)-3-methyl-5-oxopiperazin-1-yl]carbonyl}-4-fluorobenzyl)-4,5-dimethylpyridazin-3(2H)-one], the IC50 is reported as under 5 nM.
